# According to PubChem BioAssay AID540276 (National Center for Advancing Translational Sciences (NCATS), 2011):
# About 5,400 (1.8%) of roughly 300,000 compounds were called active. Inconclusive means that the source gave no clear call. Such entries were picked first, then a sample of the others. The call rests on the fitted dose curve; tested in HEK293 cells. Where the call is inconclusive, the potency comes from a doubtful curve fit.
# Test: qHTS for inhibitors of binding or entry into cells for Marburg Virus
# Details: Marburg virus pseudotyped entry inhibition, cell reporter; activity change, negative = inhibition: at 37.8 µM (top of the series) unless noted
# On the % scale 0 is the no-effect control and ±100 the full control effect; potency means the concentration at half of the fitted maximal effect.
SMILES,Potency,"activity change, negative = inhibition"
CCc1ccc(NC(=O)CCc2nc3cccnc3n2Cc2ccc(OC)cc2)cc1,"inconclusive: 29.1 µM [inhibitor, single point]",–
O=C(Nc1ccccc1N1CCN(C(=O)c2ccc(Cl)cc2)CC1)c1ccc([N+](=O)[O-])o1,"inconclusive: 12.6 µM [inhibitor, partial curve, poor fit]",–
C/C(=C\c1ccccc1)C(=O)Nc1cc(C)on1,–,inactive: 10.4%
CCN(CC(=O)Nc1ccc(NC(C)=O)cc1)C(=O)CSc1nnc(-c2ccco2)n1CC,"inconclusive: 35.5 µM [activator, single point]",–
COCCn1c(C)cc(C(=O)COC(=O)CCS(=O)(=O)c2ccc(C)cc2)c1C,–,inactive: 7.52% [at 46.1 µM]
O=C(NC1(O)C(=O)c2ccccc2C1=O)c1ccccc1,inactive,–
COc1ccc2cc(C(c3nnnn3CCc3ccccc3)N3CCCC(C)C3)c(=O)[nH]c2c1 (stereo unspecified),"inconclusive: 29.1 µM [inhibitor, single point]",–
CCOC(=O)/C=c1\s/c(=C\c2ccc3cc(OC)ccc3c2)c(=O)n1CC(=O)NCC1CCCO1 (stereo unspecified),"inconclusive: 0.891 µM [inhibitor, partial curve, poor fit]",–
O=C(O)Cn1c(=O)c(F)cn(C2CCCO2)c1=O (stereo unspecified),–,inactive: 0.135% [at 46.1 µM]
N#Cc1ccc(NC(=O)COCc2cc(-c3ccc(F)cc3)on2)cc1,"inconclusive: 0.631 µM [inhibitor, full curve, poor fit]",–
O=C1NC(=O)/C(=C\c2ccc(OCc3cccc(C(=O)O)c3)c(Cl)c2)N1,"inconclusive: 12.6 µM [inhibitor, partial curve, poor fit]",–
COc1ccc(N(C(=O)Cc2cccs2)C(C(=O)NC2CCCCC2)c2cccn2C)cc1 (stereo unspecified),–,inactive: 1.86%
Cc1ccccc1OCC(=O)N/N=C/c1cn(Cc2ccccc2)c2ccccc12,"inconclusive: 2.82 µM [inhibitor, full curve, poor fit]",–
CN(/N=C/c1ccccc1Cl)c1ncc(Cl)cc1C(F)(F)F,"inconclusive: 6.31 µM [inhibitor, single point]",–
COCC(=O)Nc1sc2c(c1C(=O)OC)CCCC2,–,inactive: 3.47%
O=C(O)c1cnn(-c2nc(-c3ccc(Cl)cc3)cs2)c1C(F)(F)F,"inconclusive: 2.24 µM [activator, partial curve, poor fit]",–
Cc1ccc(-n2ncc3c2CCCC3NC(=O)CCn2ccnc2C)cc1C (stereo unspecified),"inconclusive: 20 µM [inhibitor, single point]",–
C[C@H](NC(=O)N1CCC(Cc2ccccc2)CC1)C(=O)O,–,inactive: 1.77% [at 46.1 µM]
COc1cc(/C=N/N2CCN(c3ccccc3OC)CC2)ccc1O,"inconclusive: 6.51 µM [activator, full curve, poor fit]",–
CCOc1ccccc1C(=O)NC(C(=O)Nc1ccccc1N1CCOCC1)C(C)C (stereo unspecified),"inconclusive: 23.1 µM [inhibitor, single point]",–
CCOc1ccc(C(=O)NCc2ccccn2)cc1,–,inactive: -2.89%
Cc1ccccc1-c1nnc(SCC(=O)Nc2c(C)n(C)n(-c3ccccc3)c2=O)o1,"inconclusive: 2.31 µM [activator, partial curve, poor fit]",–
Cc1occc1C(=O)Nc1ccc2ccccc2c1,"inconclusive: 0.1 µM [activator, full curve, poor fit]",–
C/C(=N/NS(=O)(=O)c1cc(C)ccc1C)c1c[nH]c2ccccc12,"inconclusive: 8.91 µM [inhibitor, single point]",–

SMILES,Potency,"activity change, negative = inhibition"
CCc1ccc(S(=O)(=O)Nc2cccc(C3OCCCO3)c2)cc1,"inconclusive: 35.5 µM [inhibitor, single point]",–
COc1ccc2c(c1)c(CC(=O)Nc1cc(C)c(OC)c(C)c1)c(C)n2C(=O)c1ccc(Cl)cc1,"inconclusive: 3.98 µM [inhibitor, single point]",–
CCCCC1(Cc2ccc([N+](=O)[O-])cc2)C(=O)N(c2ccccc2)N(c2ccccc2)C1=O,active: 7.94 µM,–
CCOc1ccc(NC(=O)Nc2nc3ccc(S(C)(=O)=O)cc3s2)cc1,–,inactive: 11.9%
C[C@@H](C(=O)NCc1ccc(S(C)(=O)=O)cc1)[C@@H]1C[C@@]1(C)[C@@H](NC(=O)OCc1ccccc1)c1ccccc1,–,inactive: -40.1%
COc1ccccc1NC(=O)Nc1ccc(F)c(F)c1,–,inactive: -19.5% [at 46.1 µM]
CCOc1ccc(-c2cn(-c3cccc(SC)c3)c(=O)[nH]2)cc1,"inconclusive: 3.16 µM [inhibitor, single point]",–
CCc1ccc(S(=O)(=O)c2nnn3c2nc(NCCC(C)C)c2cc(Cl)ccc23)cc1,–,inactive: -1.7% [at 46.1 µM]
S=C(c1cn(Cc2ccc(Br)cc2)c2ccccc12)N1CCOCC1,"inconclusive: 23.1 µM [inhibitor, single point]",–
Clc1ccc(-c2nnc(-c3cccc4ccccc34)o2)cc1Cl,inactive,–
O=C(Cc1ccccc1)c1nnc(-c2ccccc2)o1,"inconclusive: 5.62 µM [activator, single point]",–
CCOC(=O)C1CCCN(C2=NC(=O)/C(=C/c3ccc(N(C)C)cc3)S2)C1 (stereo unspecified),–,inactive: -10.7% [at 46.1 µM]
O=C(c1ccc(S(=O)(=O)Nc2ccc(F)cc2)cc1)N1CCN(C(=O)c2ccco2)CC1,"inconclusive: 17.8 µM [inhibitor, single point]",–
CC1=Nc2ccccc2/C1=C\c1nc(-c2ccc(C(F)(F)F)cc2)oc1O,"inconclusive: 29.1 µM [inhibitor, single point]",–
CCc1ccccc1NC(=O)CSc1nccn1C,–,inactive: -13.8% [at 46.1 µM]
Cc1c(N/N=C(\C#N)C(=O)c2ccc(Cl)cc2)c(=O)n(-c2ccccc2)n1C,active: 4.11 µM,–
CC1CCC(NC(=O)CN(C)S(=O)(=O)c2cnc[nH]2)CC1 (stereo unspecified),"inconclusive: 5.62 µM [activator, partial curve, poor fit]",–
CCOC(=O)c1c(NC(=O)CSc2nc3cc(Cl)ccc3c(=O)n2Cc2ccco2)sc(C(=O)N(C)C)c1C,"inconclusive: 35.5 µM [inhibitor, single point]",–
Cc1cc2[nH]c3ccccc3c2c(C)n1,"inconclusive: 7.31 µM [inhibitor, partial curve, poor fit]",–
Cc1ccc(C(=O)N2C(=O)C(c3ccccc3)Oc3ccccc32)cc1 (stereo unspecified),active: 7.94 µM,–
O=C1c2ccccc2C(Nc2ccc(-c3nc4ccccc4[nH]3)cc2)N1Cc1ccco1 (stereo unspecified),–,inactive: -0.098%
CCOc1cccc(/C=N/NC(=S)Nc2cc(S(=O)(=O)N3CCOCC3)ccc2N2CCOCC2)c1O,"inconclusive: 2.82 µM [inhibitor, full curve, poor fit]",–
CC(C)(C)Nc1nc(SCc2ccccc2)nc(N2CCOCC2)n1,"inconclusive: 29.1 µM [inhibitor, single point]",–
O=C(CSc1ncccc1C(=O)O)NC12CC3CC(CC(C3)C1)C2,–,inactive: 21.1% [at 14.2 µM]

# Single records, as listed above. Order of values: Potency	activity change, negative = inhibition
# `CC1=Nc2ccccc2/C1=C\c1nc(-c2ccc(C(F)(F)F)cc2)oc1O` as listed: inconclusive: 29.1 µM [inhibitor, single point]	–
# `Cc1ccc(C(=O)N2C(=O)C(c3ccccc3)Oc3ccccc32)cc1` (stereo unspecified) as listed: active: 7.94 µM	–
# `O=C(Cc1ccccc1)c1nnc(-c2ccccc2)o1` as listed: inconclusive: 5.62 µM [activator, single point]	–

# Going on with the list.

SMILES,Potency,"activity change, negative = inhibition"
O=C(O)c1ccccc1OCc1nc2ccccc2s1,–,inactive: -26.3% [at 46.1 µM]
Cc1ccc(/C=N/OC(=O)c2nn(C)cc2Cl)cc1,–,inactive: -1.93% [at 46.1 µM]
COc1cccc(-n2cc(CNCc3cn(C)nc3-c3ccccc3F)cn2)c1,"inconclusive: 11.2 µM [inhibitor, partial curve, poor fit]",–
O=[N+]([O-])c1cccc(OCc2cn3cccnc3n2)c1,–,inconclusive: 8.55% [activator] [at 46.1 µM]
CCCc1ccc(C(=O)NNc2cccc(C)c2)cc1,active: 3.98 µM,–
COc1cccc(OCc2cc(C3Nc4ccccc4C(=O)N3Cc3ccco3)ccc2OC)c1 (stereo unspecified),"inconclusive: 14.1 µM [inhibitor, single point]",–
COc1cccc(/C=C/C(=O)OCC(=O)c2cc(C)n(CC3CCCO3)c2C)c1OC (stereo unspecified),–,inactive: 4.75%
COC(=O)C1=C(C)NC(=O)NC1c1ccc(-c2ccc(F)cc2)o1 (stereo unspecified),–,inactive: -2.39% [at 46.1 µM]
COc1cccc(N2CCN(CC(=O)Nc3nnc(-c4ccccc4)s3)CC2)c1,"inconclusive: 17.8 µM [inhibitor, single point]",–
Cc1nn(-c2cccc(Cl)c2)c(Cl)c1/C=N/NC(=O)c1cccs1,"inconclusive: 3.98 µM [inhibitor, full curve, poor fit]",–
COCCCN=Cc1c(C)[nH]n(-c2ccc(Br)cc2Br)c1=O,–,inactive: -6.56% [at 46.1 µM]
Cc1ccc(S(=O)(=O)c2cn(CC(=O)Nc3ccccc3)c3cc4c(cc3c2=O)OCO4)cc1,–,inactive: 10.9% [at 46.1 µM]
CCOC(=O)c1[nH]c(C)c(/C(O)=C2\C(=O)C(=O)N(CCN3CCOCC3)C2c2ccco2)c1C (stereo unspecified),–,inactive: -9.22% [at 46.1 µM]
COc1ccc(-c2nc(SCC(=O)NCc3ccco3)c(-c3ccccc3)[nH]2)cc1OC,–,inactive: -25.3%
Nc1nonc1-c1nc2ccccc2n1CC(=O)Nc1ccc(F)cc1,"inconclusive: 3.16 µM [inhibitor, single point]",–
COc1ccccc1-n1c(CNC(=O)c2ccco2)n[nH]c1=S,"inconclusive: 35.5 µM [activator, single point]",–
CCn1c(SC(C)C(=O)NCC2CCCO2)nc2ccccc21 (stereo unspecified),"inconclusive: 6.31 µM [inhibitor, single point]",–
CCN=C1NN=C(c2ccc(C)cc2)CS1,"inconclusive: 16.4 µM [inhibitor, single point]",–
CCCCCC1CCC(C(=O)N2CCOCC2)CC1 (stereo unspecified),–,inactive: 3.24%
O=C(NNC(=O)C1CCN(S(=O)(=O)c2c(Cl)cccc2Cl)CC1)c1ccccc1O,"inconclusive: 0.562 µM [activator, full curve]",–
FC(F)Oc1ccc(NC(=S)N2CCN(Cc3ccccc3)CC2)cc1,"inconclusive: 11.2 µM [inhibitor, partial curve, poor fit]",–
O=C(COC(=O)/C=C/c1c(F)cccc1Cl)NCC1CCCO1 (stereo unspecified),–,inactive: -5.95%
CCOC(=O)C1(CCCc2ccccc2)CCN(Cc2nccn2CC)CC1,"inconclusive: 12.6 µM [inhibitor, partial curve, poor fit]",–
